# From article PMC4947186
# Protein sequences, listed by entry. Tags and fused reporters are not part of them.
# UniProt P49792: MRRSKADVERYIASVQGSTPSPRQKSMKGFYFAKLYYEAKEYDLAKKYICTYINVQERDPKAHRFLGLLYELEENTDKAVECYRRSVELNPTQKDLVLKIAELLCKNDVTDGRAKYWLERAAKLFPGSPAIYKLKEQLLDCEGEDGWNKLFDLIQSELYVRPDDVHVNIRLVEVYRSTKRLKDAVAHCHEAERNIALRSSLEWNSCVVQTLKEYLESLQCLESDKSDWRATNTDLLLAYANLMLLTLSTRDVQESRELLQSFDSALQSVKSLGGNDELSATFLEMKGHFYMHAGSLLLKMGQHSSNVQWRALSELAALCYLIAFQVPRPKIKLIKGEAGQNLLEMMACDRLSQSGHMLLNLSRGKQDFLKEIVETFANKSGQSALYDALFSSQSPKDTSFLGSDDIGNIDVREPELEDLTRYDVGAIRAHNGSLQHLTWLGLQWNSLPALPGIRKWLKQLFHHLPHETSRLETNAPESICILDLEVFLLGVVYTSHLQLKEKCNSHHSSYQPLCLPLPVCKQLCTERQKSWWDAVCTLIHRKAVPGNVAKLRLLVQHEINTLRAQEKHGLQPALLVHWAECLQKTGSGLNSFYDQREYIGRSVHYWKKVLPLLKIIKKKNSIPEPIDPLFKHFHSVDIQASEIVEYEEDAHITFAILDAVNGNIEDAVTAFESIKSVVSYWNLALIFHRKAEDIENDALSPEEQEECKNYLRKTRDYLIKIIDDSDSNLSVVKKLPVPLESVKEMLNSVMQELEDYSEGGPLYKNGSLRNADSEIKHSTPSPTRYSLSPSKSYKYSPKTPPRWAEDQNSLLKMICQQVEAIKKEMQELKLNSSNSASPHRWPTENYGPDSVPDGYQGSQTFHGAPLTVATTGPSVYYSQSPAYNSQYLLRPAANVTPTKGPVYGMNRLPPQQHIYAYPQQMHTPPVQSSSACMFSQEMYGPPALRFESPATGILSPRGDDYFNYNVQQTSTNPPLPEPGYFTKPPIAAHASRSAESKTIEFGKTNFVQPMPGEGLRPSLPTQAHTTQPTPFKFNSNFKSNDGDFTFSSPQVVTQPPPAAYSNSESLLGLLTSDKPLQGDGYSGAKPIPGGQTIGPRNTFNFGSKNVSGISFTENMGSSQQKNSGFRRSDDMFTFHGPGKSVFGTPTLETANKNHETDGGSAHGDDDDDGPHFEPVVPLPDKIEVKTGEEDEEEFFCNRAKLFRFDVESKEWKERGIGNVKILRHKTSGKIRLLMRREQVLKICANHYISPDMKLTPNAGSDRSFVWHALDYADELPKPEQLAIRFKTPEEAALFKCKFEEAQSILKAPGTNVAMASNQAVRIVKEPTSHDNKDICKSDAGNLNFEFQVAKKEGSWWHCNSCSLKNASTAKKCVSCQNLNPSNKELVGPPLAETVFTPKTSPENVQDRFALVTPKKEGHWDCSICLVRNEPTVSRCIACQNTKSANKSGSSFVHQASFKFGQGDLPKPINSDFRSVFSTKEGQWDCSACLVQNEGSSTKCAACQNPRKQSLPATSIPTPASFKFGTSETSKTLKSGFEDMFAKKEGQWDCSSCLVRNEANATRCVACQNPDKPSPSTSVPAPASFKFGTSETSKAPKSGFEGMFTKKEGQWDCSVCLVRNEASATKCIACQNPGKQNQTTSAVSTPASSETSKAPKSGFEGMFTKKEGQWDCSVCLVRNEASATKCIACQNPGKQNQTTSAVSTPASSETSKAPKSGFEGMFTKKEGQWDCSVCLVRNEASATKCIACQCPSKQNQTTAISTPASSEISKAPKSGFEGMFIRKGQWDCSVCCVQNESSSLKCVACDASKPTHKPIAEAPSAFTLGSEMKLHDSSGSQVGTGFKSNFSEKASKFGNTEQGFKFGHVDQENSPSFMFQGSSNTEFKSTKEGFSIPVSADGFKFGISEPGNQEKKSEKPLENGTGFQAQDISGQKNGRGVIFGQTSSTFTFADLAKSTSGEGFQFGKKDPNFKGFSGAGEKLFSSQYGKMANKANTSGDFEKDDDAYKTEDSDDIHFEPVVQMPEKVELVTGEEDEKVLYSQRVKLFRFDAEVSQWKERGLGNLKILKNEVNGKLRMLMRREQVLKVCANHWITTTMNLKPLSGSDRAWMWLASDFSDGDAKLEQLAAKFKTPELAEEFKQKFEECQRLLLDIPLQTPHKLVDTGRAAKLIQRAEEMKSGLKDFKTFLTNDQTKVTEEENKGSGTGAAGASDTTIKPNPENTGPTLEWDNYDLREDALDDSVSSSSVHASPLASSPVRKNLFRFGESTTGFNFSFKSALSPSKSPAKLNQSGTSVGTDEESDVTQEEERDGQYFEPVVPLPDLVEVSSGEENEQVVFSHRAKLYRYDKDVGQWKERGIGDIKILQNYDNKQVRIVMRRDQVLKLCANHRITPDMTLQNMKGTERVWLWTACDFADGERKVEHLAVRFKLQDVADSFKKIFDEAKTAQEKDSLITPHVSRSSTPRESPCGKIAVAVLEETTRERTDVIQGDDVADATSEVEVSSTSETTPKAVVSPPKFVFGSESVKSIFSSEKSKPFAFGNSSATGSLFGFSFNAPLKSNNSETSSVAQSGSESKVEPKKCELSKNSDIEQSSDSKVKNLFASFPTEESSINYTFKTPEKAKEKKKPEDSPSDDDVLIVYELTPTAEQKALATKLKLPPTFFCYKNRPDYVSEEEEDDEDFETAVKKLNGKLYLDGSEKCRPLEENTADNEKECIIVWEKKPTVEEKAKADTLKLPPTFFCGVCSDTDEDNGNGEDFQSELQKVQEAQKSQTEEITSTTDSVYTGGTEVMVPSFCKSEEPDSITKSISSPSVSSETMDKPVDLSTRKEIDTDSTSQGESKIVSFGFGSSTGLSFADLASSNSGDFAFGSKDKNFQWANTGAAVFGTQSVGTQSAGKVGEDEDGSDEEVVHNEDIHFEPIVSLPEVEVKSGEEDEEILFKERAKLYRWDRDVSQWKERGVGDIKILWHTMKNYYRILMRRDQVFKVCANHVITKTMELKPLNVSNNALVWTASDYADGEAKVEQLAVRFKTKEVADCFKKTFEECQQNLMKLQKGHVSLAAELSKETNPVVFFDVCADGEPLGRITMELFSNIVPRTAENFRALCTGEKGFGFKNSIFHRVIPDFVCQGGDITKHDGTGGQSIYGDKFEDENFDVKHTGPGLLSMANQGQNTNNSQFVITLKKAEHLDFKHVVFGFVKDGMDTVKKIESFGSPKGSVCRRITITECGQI
# Molecular target: T1, flag-SHP (Small Heterodimer Partner, NR0B2), wild type, expressed in HepG2 cells (mouse) (UniProt Q62227)
# T1 sequence: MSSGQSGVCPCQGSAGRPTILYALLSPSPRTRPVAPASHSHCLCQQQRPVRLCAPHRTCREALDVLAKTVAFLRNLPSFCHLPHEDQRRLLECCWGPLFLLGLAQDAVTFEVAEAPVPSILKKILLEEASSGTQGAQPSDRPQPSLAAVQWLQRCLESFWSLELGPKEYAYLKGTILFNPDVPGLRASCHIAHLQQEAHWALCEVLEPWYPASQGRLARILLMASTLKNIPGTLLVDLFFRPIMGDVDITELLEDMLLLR
# Assay: affinity purification with mass spectrometry; flag-SHP complexes (flag-SHP immunoprecipitate) from HepG2 cells treated with vehicle or CDCA; liquid chromatography-mass spectrometry
substance,measurement,value
"Ran-binding protein 2 (RanBP2/Nup358), endogenous in HepG2 cells (from UniProt P49792 1-3224)",binding,binds

# These are yes or no findings as the source states them, for the method shown. In cells and extracts the contact can be indirect. A yes stands for co-enrichment or nearness to the bait. Other partners may have been found. Tags and fused reporters may be left off the sequences shown.
